Assay results: paper PMC2267792
Where a chain is given by its changes, count along the chain named. No constants are given. Whether binding was seen depends on the method and setting. Some entries that bind do so weakly or less than the wild type. Sequences can lack the tags named with a protein.

B1: wild-type Rad23 (protein, UniProt P32628 1-398)
chain: MVSLTFKNFKKEKVPLDLEPSNTILETKTKLAQSISCEESQIKLIYSGKVLQDSKTVSECGLKDGDQVVFMVSQKKSTKTKVTEPPIAPESATTPGRENSTEASPSTDASAAPAATAPEGSQPQEEQTATTERTESASTPGFVVGTERNETIERIMEMGYQREEVERALRAAFNNPDRAVEYLLMGIPENLRQPEPQQQTAAAAEQPSTAATTAEQPAEDDLFAQAAQGGNASSGALGTTGGATDAAQGGPPGSIGLTVEDLLSLRQVVSGNPEALAPLLENISARYPQLREHIMANPEVFVSMLLEAVGDNMQDVMEGADDMVEGEDIEVTGEAAAAGLGQGEGEGSFQVDYTPEDDQAISRLCELGFERDLVIQVYFACDKNEEAAANILFSDHAD
modifications: 32P-phosphate at the N-terminal HMK site (native gel assay only)
B2: Rad23 K43E (protein, UniProt P32628 1-398)
chain: B1 chain with K43E
modifications: 32P-phosphate at the N-terminal HMK site (native gel assay only)
B3: Rad23 S73E (protein, UniProt P32628 1-398)
chain: B1 chain with S73E
modifications: 32P-phosphate at the N-terminal HMK site (native gel assay only)

The binders below were run against T1, GST-Ufd2 (S. cerevisiae) (UniProt P54860) (assay: pull-down; glutathione sepharose saturated with GST-Ufd2; purified Rad23 proteins added in 50 mM HEPES pH 7.5, 150 mM NaCl, 5 mM EDTA, 2% Triton X-100, 0.2 mg/ml BSA; 4°C 60 min; wash PBS with 0.1% Tween-20; Western blot for Rad23; both purified).
T1 sequence: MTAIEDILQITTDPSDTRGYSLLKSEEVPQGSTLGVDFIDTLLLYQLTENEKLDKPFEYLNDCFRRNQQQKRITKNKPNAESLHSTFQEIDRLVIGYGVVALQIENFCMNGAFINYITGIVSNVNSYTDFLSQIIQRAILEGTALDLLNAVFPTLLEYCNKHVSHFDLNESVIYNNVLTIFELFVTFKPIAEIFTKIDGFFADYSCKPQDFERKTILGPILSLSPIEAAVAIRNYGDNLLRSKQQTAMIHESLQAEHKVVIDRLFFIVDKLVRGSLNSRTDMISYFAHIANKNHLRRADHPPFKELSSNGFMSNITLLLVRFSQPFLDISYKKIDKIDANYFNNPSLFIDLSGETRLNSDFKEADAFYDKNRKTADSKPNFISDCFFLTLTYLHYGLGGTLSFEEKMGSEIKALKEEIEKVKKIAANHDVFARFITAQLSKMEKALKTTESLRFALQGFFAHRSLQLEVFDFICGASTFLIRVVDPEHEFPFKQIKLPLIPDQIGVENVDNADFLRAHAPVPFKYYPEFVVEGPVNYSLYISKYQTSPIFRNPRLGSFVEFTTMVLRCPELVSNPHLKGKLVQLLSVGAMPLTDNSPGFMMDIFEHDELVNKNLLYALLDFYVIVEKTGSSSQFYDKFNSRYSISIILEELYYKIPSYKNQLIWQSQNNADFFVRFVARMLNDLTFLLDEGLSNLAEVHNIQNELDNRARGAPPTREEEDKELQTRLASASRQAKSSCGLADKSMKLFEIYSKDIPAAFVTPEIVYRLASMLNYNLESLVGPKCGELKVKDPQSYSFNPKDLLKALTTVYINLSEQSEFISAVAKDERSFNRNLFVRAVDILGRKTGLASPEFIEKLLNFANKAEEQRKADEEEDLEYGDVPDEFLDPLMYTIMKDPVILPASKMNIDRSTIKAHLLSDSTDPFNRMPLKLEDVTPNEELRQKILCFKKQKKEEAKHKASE

binding, binds:
B1
B2
B3
